Here are results for one molecule from the supplement of paper PMC8728848.

Holding throughout (test): glycan array binding signal (z-score within array); higher = stronger binding
What all share (conditions): glycan notation: IUPAC condensed, linker removed

The target in test [1] is GlcNAc(b1-2)[GlcNAc(b1-4)]Man(a1-3)[GlcNAc(b1-2)Man(a1-6)]Man(b1-4)GlcNAc(b1-4)GlcNAc. The essentials: (§1)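 Columns mapping to the same glycan were averaged after glycan names were converted to IUPAC-condensed notation. The data come from 3228 arrays in the Consortium for Functional Glycomics database, limited to those with an available protein sequence. Binding is reported as a within-array Z-score averaged across arrays of one protein sequence and across linkers.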

Test [2] addresses GlcNAc(b1-2)[GlcNAc(b1-4)]Man(a1-3)[GlcNAc(b1-4)][GlcNAc(b1-2)Man(a1-6)]Man(b1-4)GlcNAc(b1-4)GlcNAc. The essentials: as §1
In test [3] the target is GlcNAc(b1-2)[GlcNAc(b1-4)]Man(a1-3)[GlcNAc(b1-4)][GlcNAc(b1-2)[GlcNAc(b1-6)]Man(a1-6)]Man(b1-4)GlcNAc(b1-4)GlcNAc. The essentials: as §1
The target of test [4] is GlcNAc(b1-2)[GlcNAc(b1-4)]Man(a1-3)[GlcNAc(b1-4)][GlcNAc(b1-2)[GlcNAc(b1-6)]Man(a1-6)]Man(b1-4)GlcNAc(b1-4)[Fuc(a1-6)]GlcNAc. In a few lines:
as §1

Test [5] concerns the target GlcNAc(b1-2)[GlcNAc(b1-6)]Man(a1-6)[GlcNAc(b1-2)Man(a1-3)]Man(b1-4)GlcNAc(b1-4)GlcNAc. The essentials: as §1
The target of test [6] is GlcNAc(b1-2)[GlcNAc(b1-6)]Man(a1-6)[GlcNAc(b1-2)Man(a1-3)]Man(b1-4)GlcNAc(b1-4)[Fuc(a1-6)]GlcNAc. The essentials: as §1
Test [7] deals with GlcNAc(b1-2)[GlcNAc(b1-6)]Man(a1-6)[GlcNAc(b1-2)Man(a1-3)][GlcNAc(b1-4)]Man(b1-4)GlcNAc(b1-4)GlcNAc. In a few lines:
as §1

The target in a further test is GlcNAc(b1-3)Gal. In a few lines:
as §1

Test [8] addresses GlcNAc(b1-3)Gal(b1-3)GalNAc. In a few lines: as §1
Another test has as its target GlcNAc(b1-3)Gal(b1-4)Glc. In a few lines:
as §1

The target of test [9] is GlcNAc(b1-3)Gal(b1-4)GlcNAc. In a few lines: as §1
The target of test [10] is GlcNAc(b1-3)Gal(b1-4)GlcNAc(b1-3)Gal(b1-4)GlcNAc. In a few lines:
as §1

The target of another test is GlcNAc(b1-3)GalNAc. In a few lines: as §1
For another test, the target named is GlcNAc(b1-3)Man. In a few lines:
as §1

For test [11], the target named is GlcNAc(b1-3)[GlcNAc(b1-4)][GlcNAc(b1-6)]GlcNAc. The essentials: as §1
Test [12] deals with GlcNAc(b1-3)[GlcNAc(b1-6)]Gal(b1-4)GlcNAc. The essentials: as §1
Test [13] addresses GlcNAc(b1-3)[GlcNAc(b1-6)]GalNAc. In a few lines:
as §1

Test [14] addresses GlcNAc(b1-4)Gal(b1-4)GlcNAc. In a few lines:
as §1

A further test has as its target GlcNAc(b1-4)GlcNAc. In a few lines:
as §1

The target of test [15] is GlcNAc(b1-4)GlcNAc(b1-4)GlcNAc. The essentials:
as §1

The target of test [16] is GlcNAc(b1-4)GlcNAc(b1-4)GlcNAc(b1-4)GlcNAc(b1-4)GlcNAc. In a few lines: as §1
Test [17] concerns the target GlcNAc(b1-4)GlcNAc(b1-4)GlcNAc(b1-4)GlcNAc(b1-4)GlcNAc(b1-4)GlcNAc. The essentials:
as §1

The target in test [18] is GlcNAc(b1-4)[GlcNAc(b1-6)]GalNAc. The essentials: as §1

The list shows a part of the results.

B1: Latrophilin-3 (Homo sapiens), Q9HAR2 (protein)
chain: MWPSQLLIFMMLLAPIIHAFSRAPIPMAVVRRELSCESYPIELRCPGTDVIMIESANYGRTDDKICDSDPAQMENIRCYLPDAYKIMSQRCNNRTQCAVVAGPDVFPDPCPGTYKYLEVQYECVPYKVEQKVFLCPGLLKGVYQSEHLFESDHQSGAWCKDPLQASDKIYYMPWTPYRTDTLTEYSSKDDFIAGRPTTTYKLPHRVDGTGFVVYDGALFFNKERTRNIVKFDLRTRIKSGEAIIANANYHDTSPYRWGGKSDIDLAVDENGLWVIYATEQNNGKIVISQLNPYTLRIEGTWDTAYDKRSASNAFMICGILYVVKSVYEDDDNEATGNKIDYIYNTDQSKDSLVDVPFPNSYQYIAAVDYNPRDNLLYVWNNYHVVKYSLDFGPLDSRSGQAHHGQVSYISPPIHLDSELERPSVKDISTTGPLGMGSTTTSTTLRTTTLSPGRSTTPSVSGRRNRSTSTPSPAVEVLDDMTTHLPSASSQIPALEESCEAVEAREIMWFKTRQGQIAKQPCPAGTIGVSTYLCLAPDGIWDPQGPDLSNCSSPWVNHITQKLKSGETAANIARELAEQTRNHLNAGDITYSVRAMDQLVGLLDVQLRNLTPGGKDSAARSLNKAMVETVNNLLQPQALNAWRDLTTSDQLRAATMLLHTVEESAFVLADNLLKTDIVRENTDNIKLEVARLSTEGNLEDLKFPENMGHGSTIQLSANTLKQNGRNGEIRVAFVLYNNLGPYLSTENASMKLGTEALSTNHSVIVNSPVITAAINKEFSNKVYLADPVVFTVKHIKQSEENFNPNCSFWSYSKRTMTGYWSTQGCRLLTTNKTHTTCSCNHLTNFAVLMAHVEVKHSDAVHDLLLDVITWVGILLSLVCLLICIFTFCFFRGLQSDRNTIHKNLCISLFVAELLFLIGINRTDQPIACAVFAALLHFFFLAAFTWMFLEGVQLYIMLVEVFESEHSRRKYFYLVGYGMPALIVAVSAAVDYRSYGTDKVCWLRLDTYFIWSFIGPATLIIMLNVIFLGIALYKMFHHTAILKPESGCLDNIKSWVIGAIALLCLLGLTWAFGLMYINESTVIMAYLFTIFNSLQGMFIFIFHCVLQKKVRKEYGKCLRTHCCSGKSTESSIGSGKTSGSRTPGRYSTGSQSRIRRMWNDTVRKQSESSFITGDINSSASLNREGLLNNARDTSVMDTLPLNGNHGNSYSIASGEYLSNCVQIIDRGYNHNETALEKKILKELTSNYIPSYLNNHERSSEQNRNLMNKLVNNLGSGREDDAIVLDDATSFNHEESLGLELIHEESDAPLLPPRVYSTENHQPHHYTRRRIPQDHSESFFPLLTNEHTEDLQSPHRDSLYTSMPTLAGVAATESVTTSTQTEPPPAKCGDAEDVYYKSMPNLGSRNHVHQLHTYYQLGRGSSDGFIVPPNKDGTPPEGSSKGPAHLVTSL
For the molecule B1, the “glycan array binding signal (z-score)” value is 0.886 in test [1]; 0.562 in [2]; -0.645 in [3]; 0.388 in test [4]; 0.23 in test [5]; 2.14 in test [6]. Further, the “glycan array binding signal (z-score)” value is -0.448 in test [7]; -0.541 in the test with GlcNAc(b1-3)Gal; 1.03 in test [8]; -0.207 with GlcNAc(b1-3)Gal(b1-4)Glc; -0.046 in [9]; -0.273 in test [10]. Further, the “glycan array binding signal (z-score)” value was -0.602 with GlcNAc(b1-3)GalNAc; -0.668 in the test with GlcNAc(b1-3)Man; -0.458 in test [11]; -0.394 in test [12]; -1.09 in test [13]; -1.24 in test [14]. Besides, the “glycan array binding signal (z-score)” value with GlcNAc(b1-4)GlcNAc was -0.41; in test [15] it was -0.887; in test [16], 0.111; in [17] it was -0.811; in test [18], -0.937.
